Experimental data: PubChem BioAssay AID1347076 (National Center for Advancing Translational Sciences (NCATS), 2019)
Among all 400,000 compounds or so, about 13,000 (3.2%) were called active. Inconclusive means that the source gave no clear call. Such entries were picked first, then a sample of the others. Calls come from the whole dose curve; as a rule, active = well fitted cell-killing curve with a large enough effect; inconclusive = small, poorly fitted or top-dose-only effect, or effect the other way; inactive = flat fitted curve, though single readings scatter. Potencies of inconclusive entries are doubtful fits and often do not repeat.

Assay: qHTS assay for MDR1-selective chemotherapeutics: Primary screen using the drug-selected MDR subline cells KB-V1; note: nearly all actives have a fitted effect of over 60% in size
Details: KB-V1 MDR cells viability, CellTiter-Glo, 72 h; activity change, negative = cytotoxicity: at 46.1 µM (top of the series)
Method in brief: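 Luminescent ATP read-out (CellTiter-Glo, 10 min) measures survival of drug-selected KB-V1 MDR cells after 72 h, 37 degrees C compound exposure. Medium: phenol-red-free DMEM, 10% FBS. Values from fitted concentration-response curves.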
% is set by controls: 0 for no effect and ±100 for the full control effect; potency is the fitted concentration of half-maximal effect.

| SMILES | Potency | activity change, negative = cytotoxicity |
| --- | --- | --- |
| Cc1[nH]c2ccccc2c1/C=N\NC(=O)CNc1ccc2c(c1)OCO2 | inconclusive: 18.4 µM [rising, single point] |  |
| Cn1nc([N+](=O)[O-])nc1Sc1nnc(-c2ccccc2)o1 | inactive |  |
| CCN1CCN(C(c2ccccc2)c2nnnn2C(C)(C)C)CC1 (stereo unspecified) | inactive |  |
| Cc1cc2c3c(c1)C(C)(c1ccccc1)CC(C)(C)N3C(=O)C21C(C#N)=C(N)OC2=C1C(=O)CC(C)(C)C2 (stereo unspecified) | active: 20.6 µM |  |
| Cc1cc(NC(=O)CSCC(=O)N(C)Cc2ccc(Cl)cc2Cl)no1 | inconclusive: 20.6 µM [cytotoxic, single point] |  |
| N#Cc1ccc(CSc2nnc3ccccn23)cc1 | inconclusive: 16.4 µM [rising, partial curve] |  |
| Cc1ccc(C(=O)/C=C/c2ccc(Br)cc2)o1 | inactive |  |
| COc1ccc(/C=C2\SC(=S)N(CCCC(=O)Nc3ccccc3C(=O)O)C2=O)cc1OC | inconclusive: 16.4 µM [rising, partial curve, poor fit] |  |
| CCOC(=O)c1[nH]c(C)c(/C(O)=C2\C(=O)C(=O)N(CCCN3CCOCC3)C2c2cccs2)c1C (stereo unspecified) | inconclusive: 20.6 µM [cytotoxic, single point] |  |
| Cc1ccc(S(=O)(=O)N2CCN(C(=O)c3ccccc3)C2C(C)C)cc1 (stereo unspecified) | inconclusive: 20.6 µM [cytotoxic, single point] |  |
| CCC(C)(C)NC(=O)c1ccc(S(=O)(=O)N2CCCCCC2)cc1 | inconclusive: 10.3 µM [cytotoxic, partial curve, poor fit] |  |
| Cc1ccc(NS(=O)(=O)c2c(C)nc3sccn3c2=O)c(C)c1 | inactive |  |
| CCOC(=O)C1=C(CNCc2ccc(C)cc2)NC(=O)NC1c1ccc(OC)cc1 (stereo unspecified) | inconclusive: 9.2 µM [cytotoxic, partial curve] |  |
| COc1ccc(CN(C)C(=O)CNC(=O)c2sc3ccccc3c2Cl)c(OC)c1 | inconclusive: 9.2 µM [cytotoxic, partial curve] |  |
| COc1cccc(CN(C)Cc2cc(=O)oc3cc(O)c(Cl)cc23)c1 | inactive |  |
| CC(C)c1cc(C(=O)N/N=C/c2ccoc2)cs1 | inconclusive: 16.4 µM [rising, single point] |  |
| CCn1ncc2c(OCc3ccc(C#N)cc3)cc(C)nc21 | inconclusive: 29.1 µM [cytotoxic, single point] |  |
| CCc1cccc(NC(=O)CCc2c(C)nc3c(c2C)c(=O)n(C)c(=O)n3C)c1 | inactive |  |
| COc1ccc(OC)c(CNn2c(-c3ccccc3F)nc3ccccc3c2=O)c1 | inconclusive: 11.6 µM [cytotoxic, partial curve, poor fit] |  |
| Cc1nn(Cc2cccc(C(=O)NC3CCCCC3)c2)c(C)c1Cl | inconclusive: 10.3 µM [cytotoxic, single point] |  |
| CC(C)(C)C(c1nc2ccccc2[nH]1)n1c(-c2cc(Cl)cc(Cl)c2)nc2ccccc21 (stereo unspecified) | inconclusive: 20.6 µM [cytotoxic, partial curve, poor fit] |  |
| CC(=O)/C(=N/Nc1ccccc1Cl)Sc1nnc(C(O)c2ccccc2)n1-c1ccccc1 (stereo unspecified) | active: 16.4 µM |  |
| CCC(C)/C(C)=N/NC(=O)c1ccc(CSc2nc3ccccc3s2)cc1 (stereo unspecified) | active: 23.1 µM |  |
| CCCCNC(=O)C1(C)CCCCN1C(=O)c1ccc(F)c(C)c1 (stereo unspecified) | inactive |  |

As a short view, part of the list above.

| SMILES | Potency | activity change, negative = cytotoxicity |
| --- | --- | --- |
| Cc1ccc(C(=O)/C=C/c2ccc(Br)cc2)o1 | inactive |  |
| COc1ccc(/C=C2\SC(=S)N(CCCC(=O)Nc3ccccc3C(=O)O)C2=O)cc1OC | inconclusive: 16.4 µM [rising, partial curve, poor fit] |  |

Further structures follow.

| SMILES | Potency | activity change, negative = cytotoxicity |
| --- | --- | --- |
| COc1ccc(N2CCN(CCCNC(=O)C3(S(=O)(=O)c4ccc(Cl)cc4)CC3)CC2)cc1 | active: 9.2 µM |  |
| O=S(=O)(CCN1CCN(c2ccccn2)CC1)c1ccc(Cl)cc1Cl | inactive |  |
| COc1ccccc1/C=C/C(=O)OCC(=O)Nc1cc(C(F)(F)F)ccc1N1CCOCC1 | inconclusive: 29.1 µM [cytotoxic, single point] |  |
| Cc1cc(C)c2oc(C(=O)Nc3sc4c(c3C(=O)NCc3ccco3)CCCC4)cc(=O)c2c1 | inconclusive: 29.1 µM [rising, single point] |  |
| COc1ccc(C2=NOC(C(=O)NCc3ccccc3)C2)cc1 (stereo unspecified) | active: 7.31 µM |  |
| COc1ccc(N2C(=O)CSC2c2ccccc2[N+](=O)[O-])cc1 (stereo unspecified) | inconclusive: 18.4 µM [cytotoxic, single point] |  |
| C=CCn1c(SCC(=O)c2ccc(O)c(O)c2)nnc1-c1cccc(OC)c1 | inactive |  |
| Cc1c(N=Nc2c(-c3ccc([N+](=O)[O-])cc3)[nH]n(C(N)=S)c2=O)cccc1[N+](=O)[O-] | active: 16.4 µM |  |
| Cc1ccc(S(=O)(=O)N2CCOCC2)cc1-c1n[nH]c(=S)n1-c1ccccc1 | inconclusive: 29.1 µM [rising, single point] |  |
| Cc1ccc(NC(=O)c2cccc(N3CCCS3(=O)=O)c2)cc1 | inconclusive: 9.2 µM [cytotoxic, partial curve, poor fit] |  |
| N#CCSc1nnc(COc2ccc3ccccc3c2)o1 | inconclusive: 25.9 µM [cytotoxic, single point] |  |
| O=C(CCn1c(=O)c2cccn2c2cccnc21)NCc1cccc(Cl)c1 | inconclusive: 0.0092 µM [rising, full curve] |  |
| COc1ccc(CC(=O)NNC(=O)c2cccnc2)cc1OC | inconclusive: 14.6 µM [rising, partial curve, poor fit] |  |
| Cc1cccc2sc(NC(=O)c3cc(S(=O)(=O)N(C)C)ccc3N3CCCC3)nc12 | inconclusive: 9.2 µM [cytotoxic, partial curve] |  |
| COc1ccc(NC(=O)c2cccc3c(-c4ccc(O)c(OC)c4)coc23)cc1 | inconclusive: 29.1 µM [cytotoxic, single point] |  |
| O=C1N=C(c2ccccc2)S/C1=C\c1cccs1 | inconclusive: 18.4 µM [cytotoxic, single point] |  |
| Cc1c(NC(=O)c2ccc(Cl)cc2)cc(C(C)C)c(O)c1S(=O)(=O)c1ccc(Cl)cc1 | inactive |  |
| CC(=O)N/N=C/c1c(C)[nH]n(-c2ccccc2)c1=O | inconclusive: 7.31 µM [cytotoxic, partial curve] |  |
| COc1ccc(NC(=O)C(=O)NCCC2CCCCN2S(=O)(=O)c2ccccc2)cc1 (stereo unspecified) | inconclusive: 6.51 µM [cytotoxic, full curve] |  |
| CN(C)S(=O)(=O)c1ccc(S(=O)(=O)Nc2ccc3c(c2)oc2ccccc23)cc1 | inconclusive: 20.6 µM [cytotoxic, single point] |  |
| Cc1ccc(-c2nnc(-c3ccccc3S(=O)(=O)Cc3ccc(Cl)cc3)o2)cc1 | inconclusive: 9.2 µM [cytotoxic, partial curve, poor fit] |  |
| O=C(CSc1ccccc1)N/N=C/c1ccccc1O | inactive |  |
| Cc1cc(C)n2nc(C(=O)Nc3ccc4c(c3)CCC4)nc2n1 | inconclusive: 18.4 µM [cytotoxic, single point] |  |
| CS(=O)(=O)N(CCc1ccccc1)CC(=O)NCc1ccccc1Cl | inconclusive: 20.6 µM [cytotoxic, single point] |  |

| SMILES | Potency | activity change, negative = cytotoxicity |
| --- | --- | --- |
| COc1ccc(NC(=O)/C(C#N)=C\C=C\c2ccco2)cc1 | active: 10.3 µM |  |
| CCOC(=O)C1(C)CCN1C(=O)c1ccc(Cl)cc1Cl (stereo unspecified) | inactive |  |
| O=Cc1ccc(O)c(O)c1 | inconclusive: 29.1 µM [cytotoxic, single point] |  |
| O=C1c2ccccc2C(=O)c2c1ccc1c(=O)n(C3CCCCC3)[nH]c21 | active: 10.3 µM |  |
| CCCCC1CCC(C(=O)Nc2ccccc2N2CCOCC2)CC1 (stereo unspecified) |  | inconclusive: 10.3% |
| CCCOc1ccc(-c2nnn(CC(=O)Nc3cccc(C(=O)OC)c3)n2)cc1 | active: 13 µM |  |
| CC(C)(C)NC(=O)NC(=O)CN1CCCc2ccccc21 | inconclusive: 13 µM [cytotoxic, partial curve, poor fit] |  |
| COc1ccc(NC(=O)C2=C(C)Nc3nc(CCCO)nn3C2c2ccc(O)cc2)cc1 (stereo unspecified) | inconclusive: 8.2 µM [rising, partial curve, poor fit] |  |
| COc1ccc(-c2csc3ncnc(Sc4nnnn4C)c23)cc1 | inconclusive: 29.1 µM [cytotoxic, single point] |  |
| CCS(=O)(=O)N1CCN(c2nc(-c3ccccc3)cs2)CC1 | inconclusive: 16.4 µM [cytotoxic, single point] |  |
| COc1cc2ncnc(NCc3ccc(C)cc3)c2cc1OC | inactive |  |
| COc1cccc(NC(=O)c2ccnc(N3CCC(C(=O)NCc4cc(OC)ccc4OC)CC3)c2)c1 | inactive |  |
| Cc1cccc(C)c1NC(=S)N1CCCN(Cc2ccc(F)cc2)C1 | inactive |  |
| CCCCN1C(=O)C(CC(=O)NCC2CCCCC2)CC(C(=O)N(C(C)C)C(C)C)=C1C (stereo unspecified) | inactive |  |
| Nc1cc(C(=O)OCC(=O)Nc2ccc(N3CCOCC3)cc2)ccc1Cl | inconclusive: 4.11 µM [rising, full curve, poor fit] |  |
| Cc1cccn2c(=O)c(C=O)c(Cl)nc12 | inconclusive: 23.1 µM [cytotoxic, single point] |  |
| CCOCCCNC(=O)CN(c1cc([N+](=O)[O-])ccc1OC)S(C)(=O)=O | inconclusive: 29.1 µM [rising, single point] |  |
| CCOc1ccc(C(c2c(O)cc(C)n(CCOC)c2=O)N2CCN(c3ccccc3F)CC2)cc1 (stereo unspecified) | inactive |  |
| Cc1ccccc1N1C(=O)CN(Cc2sccc2C)C1=S | active: 3.26 µM |  |
| Cc1cc(C)c2c(=O)[nH]c(SCC(=O)c3ccc(C(C)C)cc3)nc2n1 | active: 16.4 µM |  |
| COc1ccc(-c2cc(C(F)F)n3ncc(C(=O)N4CCN5CCCC5C4)c3n2)cc1 (stereo unspecified) | inactive |  |
| Cc1cccc(NNC(N)=S)c1C | inconclusive: 2.59 µM [cytotoxic, full curve, poor fit] |  |
| CCN(CC)CCNC(=O)c1c(O)c2cccc3c2n(c1=O)CCC3 | active: 0.731 µM |  |

A draw from above in order of molecular weight, falling.

| SMILES | Potency | activity change, negative = cytotoxicity |
| --- | --- | --- |
| COc1ccc(/C=C2\SC(=S)N(CCCC(=O)Nc3ccccc3C(=O)O)C2=O)cc1OC | inconclusive: 16.4 µM [rising, partial curve, poor fit] |  |
| C=CCn1c(SCC(=O)c2ccc(O)c(O)c2)nnc1-c1cccc(OC)c1 | inactive |  |
| CC(C)(C)NC(=O)NC(=O)CN1CCCc2ccccc21 | inconclusive: 13 µM [cytotoxic, partial curve, poor fit] |  |
